Experimental data taken from paper PMC7721737, “Cytosolic sequestration of the vitamin D receptor as a therapeutic option for vitamin D-induced hypercalcemia” (Nature Communications, 2020).
These are yes or no findings as the source states them, for the method shown. In cells and extracts the contact can be indirect. Some binding calls cover weakened binding; strength is not graded here. Each block holds one binder with its values, some of them ahead of it.

Tests used:
[1] = molecular target: T1, WBP4, endogenous in mouse kidney (mouse (endogenous in kidney)) (UniProt Q61048); assay: co-IP; anti-WBP4 immunoprecipitation of total kidney extracts of wild type mice, no co-treatment, VDR immunoblot
T1 sequence: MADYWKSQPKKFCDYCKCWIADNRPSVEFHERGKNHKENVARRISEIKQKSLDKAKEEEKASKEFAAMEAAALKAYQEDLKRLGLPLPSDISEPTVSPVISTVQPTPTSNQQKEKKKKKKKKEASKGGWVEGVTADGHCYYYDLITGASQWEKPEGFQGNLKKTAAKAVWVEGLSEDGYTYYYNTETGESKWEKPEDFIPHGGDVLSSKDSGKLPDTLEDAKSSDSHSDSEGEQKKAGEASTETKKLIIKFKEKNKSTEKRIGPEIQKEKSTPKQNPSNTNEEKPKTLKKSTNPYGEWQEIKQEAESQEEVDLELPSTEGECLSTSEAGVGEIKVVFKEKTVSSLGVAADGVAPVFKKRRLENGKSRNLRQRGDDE

[2] = molecular target: T1, WBP4, endogenous in mouse kidney (mouse (endogenous in kidney)); assay: co-IP; anti-WBP4 immunoprecipitation of total kidney extracts of wild type mice treated for 6 h with 1 µg/kg 1,25D3 and 1 µg/kg ZK, VDR immunoblot
[3] = molecular target: T2, WBP4, endogenous in IEC-18 rat intestinal epithelial cells (rat (endogenous in IEC-18)) (UniProt Q5HZF2); assay: co-IP; anti-WBP4 immunoprecipitation of cytosolic extracts of cells co-treated with 1,25D3 and ZK, VDR immunoblot; rabbit IgG as negative control
T2 sequence: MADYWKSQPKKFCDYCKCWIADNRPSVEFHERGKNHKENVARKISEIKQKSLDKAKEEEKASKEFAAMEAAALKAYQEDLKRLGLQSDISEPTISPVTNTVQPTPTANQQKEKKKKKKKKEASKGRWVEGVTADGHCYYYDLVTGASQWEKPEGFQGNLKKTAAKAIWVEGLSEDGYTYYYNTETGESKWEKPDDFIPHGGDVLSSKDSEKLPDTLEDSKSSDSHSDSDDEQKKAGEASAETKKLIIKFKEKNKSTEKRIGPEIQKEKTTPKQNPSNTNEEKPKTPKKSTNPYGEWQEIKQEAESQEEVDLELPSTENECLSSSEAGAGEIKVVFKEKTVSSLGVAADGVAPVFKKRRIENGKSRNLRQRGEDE

[4] = molecular target: T2, WBP4, endogenous in IEC-18 rat intestinal epithelial cells (rat (endogenous in IEC-18)); assay: co-IP; anti-WBP4 immunoprecipitation of cytosolic extracts of cells in basal conditions (vehicle), VDR immunoblot
[5] = molecular target: T3, WBP4, endogenous in FB-789 human fibroblasts (human (endogenous in FB-789)) (UniProt O75554); assay: co-IP; anti-WBP4 immunoprecipitation of cytosolic extracts of cells co-treated with 1,25D3 and ZK, VDR immunoblot; rabbit IgG as negative control
T3 sequence: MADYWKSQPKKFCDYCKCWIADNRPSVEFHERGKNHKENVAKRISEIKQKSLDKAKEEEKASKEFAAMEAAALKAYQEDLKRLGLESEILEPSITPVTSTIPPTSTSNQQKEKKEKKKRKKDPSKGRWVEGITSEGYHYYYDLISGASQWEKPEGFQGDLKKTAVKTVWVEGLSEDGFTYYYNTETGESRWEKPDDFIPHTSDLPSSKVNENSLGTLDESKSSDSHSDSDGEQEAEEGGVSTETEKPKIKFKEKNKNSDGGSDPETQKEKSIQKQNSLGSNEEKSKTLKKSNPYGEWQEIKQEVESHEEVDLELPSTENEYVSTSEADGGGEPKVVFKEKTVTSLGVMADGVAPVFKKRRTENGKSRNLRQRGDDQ

[6] = molecular target: T3, WBP4, endogenous in FB-789 human fibroblasts (human (endogenous in FB-789)); assay: co-IP; anti-WBP4 immunoprecipitation of cytosolic extracts of cells in basal conditions (vehicle), VDR immunoblot

binding [1]: binds weakly
binding [2]: binds
B1: vitamin D receptor, endogenous in mouse kidney (receptor, UniProt P48281 1-422)
chain: MEAMAASTSLPDPGDFDRNVPRICGVCGDRATGFHFNAMTCEGCKGFFRRSMKRKALFTCPFNGDCRITKDNRRHCQACRLKRCVDIGMMKEFILTDEEVQRKREMIMKRKEEEALKDSLRPKLSEEQQHIIAILLDAHHKTYDPTYADFRDFRPPIRADVSTGSYSPRPTLSFSGDSSSNSDLYTPSLDMMEPASFSTMDLNEEGSDDPSVTLDLSPLSMLPHLADLVSYSIQKVIGFAKMIPGFRDLTSDDQIVLLKSSAIEVIMLRSNQSFTLDDMSWDCGSQDYKYDITDVSRAGHTLELIEPLIKFQVGLKKLNLHEEEHVLLMAICIVSPDRPGVQDAKLVEAIQDRLSNTLQTYIRCRHPPPGSHQLYAKMIQKLADLRSLNEEHSKQYRSLSFQPENSMKLTPLVLEVFGNEIS

binding [3]: binds
binding [4]: binds weakly
B2: vitamin D receptor, endogenous in IEC-18 rat intestinal epithelial cells (receptor, UniProt P13053 1-423)
chain: MEATAASTSLPDPGDFDRNVPRICGVCGDRATGFHFNAMTCEGCKGFFRRSMKRKALFTCPFNGDCRITKDNRRHCQACRLKRCVDIGMMKEFILTDEEVQRKREMIMKRKEEEALKDSLRPKLSEEQQHIIAILLDAHHKTYDPTYADFRDFRPPVRMDGSTGSYSPRPTLSFSGNSSSSSSDLYTTSLDMMEPSGFSNLDLNGEDSDDPSVTLDLSPLSMLPHLADLVSYSIQKVIGFAKMIPGFRDLTSDDQIVLLKSSAIEVIMLRSNQSFTMDDMSWDCGSQDYKYDVTDVSKAGHTLELIEPLIKFQVGLKKLNLHEEEHVLLMAICIVSPDRPGVQDAKLVEAIQDRLSNTLQTYIRCRHPPPGSHQLYAKMIQKLADLRSLNEEHSKQYRSLSFQPENSMKLTPLVLEVFGNEIS

binding [5]: binds
binding [6]: binds weakly
B3: vitamin D receptor, endogenous in FB-789 human fibroblasts (receptor, UniProt P11473 1-427)
chain: MEAMAASTSLPDPGDFDRNVPRICGVCGDRATGFHFNAMTCEGCKGFFRRSMKRKALFTCPFNGDCRITKDNRRHCQACRLKRCVDIGMMKEFILTDEEVQRKREMILKRKEEEALKDSLRPKLSEEQQRIIAILLDAHHKTYDPTYSDFCQFRPPVRVNDGGGSHPSRPNSRHTPSFSGDSSSSCSDHCITSSDMMDSSSFSNLDLSEEDSDDPSVTLELSQLSMLPHLADLVSYSIQKVIGFAKMIPGFRDLTSEDQIVLLKSSAIEVIMLRSNESFTMDDMSWTCGNQDYKYRVSDVTKAGHSLELIEPLIKFQVGLKKLNLHEEEHVLLMAICIVSPDRPGVQDAALIEAIQDRLSNTLQTYIRCRHPPPGSHLLYAKMIQKLADLRSLNEEHSKQYRCLSFQPECSMKLTPLVLEVFGNEIS
